## Library screen at single concentrations

Mtb cholesterol medium: 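Whole-cell growth test on Mycobacterium tuberculosis, read after 4 days in a medium based on cholesterol and the lipid DPPC; the read-out is not stated. Tested at 50 µM. Direction is inferred from retests: higher values go with more growth inhibition. Size under these conditions: about 69,000 compounds, about 370 of them at 50% or above in at least one test.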
Mtb glucose medium: 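Phenotypic screen: M. tuberculosis growth, glucose 7H9 medium, 3 days; the read-out is not stated. Tested at 50 µM. The record gives no direction; compounds that gave an IC50 in retests scored well above the rest, so higher reads as more growth inhibition. Of about 69,000 compounds tested this way, about 760 (1.1%) reached 50% or more in at least one test.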

Values are the deposited “Percent Effect”, in %. How 0% and 100% were set is not recorded. Most values in the screen are low, and negative values occur. Compounds were drawn at random from those tested, without regard to their results. Two or more numbers in one place are separate tests of the same structure; such repeats can differ widely.

Compound: COc1cc(NCC(c2ccccn2)N2CCOCC2)ncn1 (centres undefined)
Mtb cholesterol medium: 0.1362
Mtb glucose medium: 1.882

Compound: Cc1ccc(CN2CCN(C3CCSCC3)CC2CCO)o1 (centres undefined)
Mtb cholesterol medium: -11.7
Mtb glucose medium: -15.87

Compound: CC(C)Cn1ncc2cc(C(=O)N(C)Cc3cccc(O)c3)cnc21
Mtb cholesterol medium: -14.76
Mtb glucose medium: -14.16

Compound: O=C(CCc1nc(Cl)n[nH]1)NC1CCCN(C2Cc3ccccc3C2)C1 (centres undefined)
Mtb cholesterol medium: 9.661
Mtb glucose medium: -10.22

Compound: CC(=O)N1CCCC(c2nccnc2-c2ccc(CO)cc2)C1 (centres undefined)
Mtb cholesterol medium: -1.205
Mtb glucose medium: -3.206

Compound: CC(C)c1nc(CNc2ccc(N3CCC(CO)CC3)cn2)cs1
Mtb cholesterol medium: -6.826
Mtb glucose medium: -12.77

Compound: O=C(O)C(F)(F)F.[H][C@@]12CCN(Cc3ccc(OC)cc3)C[C@]1(C(=O)NCCOC)CCO2
Mtb cholesterol medium: -18.92
Mtb glucose medium: 5.066

Compound: CCC(=O)N1CC[C@H](O)[C@@H]1Cc1ccccc1
Mtb cholesterol medium: -2.218 & -3.523
Mtb glucose medium: 22.35

Compound: CSc1ccc(-n2nnc(C(=O)O)c2-c2ccccn2)cc1
Mtb cholesterol medium: -15.96
Mtb glucose medium: -10.84

Compound: [H][C@]12CC[C@]([H])(CN(C(=O)c3ccc(N)nc3)C1)N(Cc1ccccc1)C2
Mtb cholesterol medium: 4.957
Mtb glucose medium: -12.62

Compound: O=C(O)C(F)(F)F.O=C(O)C(F)(F)F.[H][C@]12CCN(C(=O)CC3CC3)CC[C@@]1([H])S(=O)(=O)CCN2Cc1cccnc1
Mtb cholesterol medium: -19.96
Mtb glucose medium: -25.42

Compound: COCc1cccc(C(=O)N(C)Cc2ncc(C)c(OC)c2C)c1
Mtb cholesterol medium: 1.714
Mtb glucose medium: 31.61

Compound: Cc1nccn1-c1ncccc1NC(=O)CCOCC(C)C
Mtb cholesterol medium: -6.604
Mtb glucose medium: -26.57 & -3.034

Compound: Cn1cc(CN2CC3(CCN(Cc4ccsc4)C3)C2)cn1
Mtb cholesterol medium: -31.33
Mtb glucose medium: -7.584 & -14.64

Compound: Cc1ncc2c(n1)C1(CCN(C(=O)C3CC3)CC1)OCC2.Cl
Mtb cholesterol medium: 12.43 & -0.5695
Mtb glucose medium: 18.63

Compound: CN(Cc1ccccn1)C(C(=O)O)c1ccc2c(c1)OCO2 (centres undefined)
Mtb cholesterol medium: 13.33
Mtb glucose medium: -1.557 & 22.2

Compound: CCC(=O)N1CCN(c2ncnc3cc4c(cc23)OCCO4)CC1
Mtb cholesterol medium: 18.32
Mtb glucose medium: 26.41

Compound: CC(=O)NCC(=O)N1CCN(Cc2ccncc2)c2ncccc2C1
Mtb cholesterol medium: -51.05 & -6.737
Mtb glucose medium: -5.388

Compound: CN(C)S(=O)(=O)N1CCOC(c2cccc(-c3cncnc3)n2)C1 (centres undefined)
Mtb cholesterol medium: -6.998 & -10.31
Mtb glucose medium: -2.181

Compound: C1CCC(NCCN2CCOCC2)C1
Mtb cholesterol medium: 5.427
Mtb glucose medium: 37.48

Compound: O=C(CCc1ccc(Cl)cc1)N1CCC(O)(C(F)(F)F)C1 (centres undefined)
Mtb cholesterol medium: 15.08
Mtb glucose medium: 36.11

Compound: Cc1ccc(-c2ccsc2C(=O)NC2CCS(=O)(=O)C2)cc1 (centres undefined)
Mtb cholesterol medium: -31.75
Mtb glucose medium: -16.57

Compound: Cc1cc(C)c2c(c1)NC(=O)C2CC(=O)O (centres undefined)
Mtb cholesterol medium: 8.203
Mtb glucose medium: 5.491

Compound: COc1c(F)cc(CN2CCC3(CC2)C(C(=O)O)CC(=O)N3C)cc1Cl (centres undefined)
Mtb cholesterol medium: 11.32
Mtb glucose medium: -0.1314 & 3.006

Compound: Cc1nc(C(C)NCc2cc(O)c3cccc(F)c3n2)cs1 (centres undefined)
Mtb cholesterol medium: -15.86
Mtb glucose medium: 17.2

For reference, 2 entries once more:

| Compound | Mtb cholesterol medium | Mtb glucose medium |
|---|---|---|
| `COCc1cccc(C(=O)N(C)Cc2ncc(C)c(OC)c2C)c1` | 1.714 | 31.61 |
| `CC(=O)NCC(=O)N1CCN(Cc2ccncc2)c2ncccc2C1` | -51.05 & -6.737 | -5.388 |

Source: ChEMBL document CHEMBL3988442, “University of Dundee, Small-Polar-MMV Screening Library” (2021).